{"source": "PubChem BioAssay AID540276", "about": "(National Center for Advancing Translational Sciences (NCATS), 2011)", "note": "Among all 300,000 compounds or so, about 5,400 (1.8%) were called active. This list was built around the results that the source calls inconclusive (neither active nor inactive); the mix of calls is not that of the screen. Calls come from the whole dose curve; tested in HEK293 cells. A potency beside an inconclusive call is a rough fit, not a confirmed value. % is set by controls: 0 for no effect and ±100 for the full control effect; potency is the fitted concentration of half-maximal effect.", "data": [{"assay": "qHTS for inhibitors of binding or entry into cells for Marburg Virus", "details": "Marburg virus pseudotyped entry inhibition, cell reporter; activity change, negative = inhibition: at 37.8 µM (top of the series) unless noted", "values": [{"smiles": "COc1ccc(-c2nc3ccccc3c(=O)n2NC(=S)N(C)C)cc1", "Potency": "inconclusive: 0.398 µM [inhibitor, partial curve, poor fit]"}, {"smiles": "CCc1ccc(C(=O)CN2C(=O)NC3(CCCCCC3)C2=O)cc1", "Potency": "inconclusive: 3.98 µM [activator, full curve, poor fit]"}, {"smiles": "Cn1c(N)c(C(=O)COC(=O)CCC2CCCCC2)c(=O)n(C)c1=O", "Potency": "inconclusive: 3.16 µM [inhibitor, full curve]"}, {"smiles": "Clc1cccc(N2CCN(c3nc4ccccc4n4cnnc34)CC2)c1", "activity change, negative = inhibition": "inactive: -15.8% [at 46.1 µM]"}, {"smiles": "C/C(=N\\NC(=O)c1c(-c2ccccc2Cl)noc1C)c1cccc(NC(=O)C(C)C)c1", "activity change, negative = inhibition": "inactive: -8.26%"}, {"smiles": "COc1ccc(-n2c(C)nc(N)c2C(=O)c2ccccc2)cc1", "Potency": "inconclusive: 5.62 µM [activator, single point]"}, {"smiles": "Oc1ccccc1-c1cc(C(F)(F)C(F)F)nc(-c2ccccc2)n1", "activity change, negative = inhibition": "inactive: -30.1%"}, {"smiles": "COc1ccc(NC(=O)/C=C/c2cccc(F)c2)cn1", "Potency": "inconclusive: 14.6 µM [inhibitor, single point]"}, {"smiles": "Cc1c(NC(=O)c2cccnc2Cl)c(=O)n(-c2ccccc2)n1C", "Potency": "inconclusive: 1.26 µM [activator, single point]"}, {"smiles": "CCn1c(SCc2ccccc2)nnc1-c1ccc(S(=O)(=O)N2CCCCC2)cc1", "Potency": "inactive"}, {"smiles": "C/C(=N\\NC(=O)c1ccc2c(c1)OCO2)c1ccc(NC(=O)CCCC(=O)O)cc1", "Potency": "inconclusive: 31.6 µM [activator, single point]"}, {"smiles": "COc1ccc(CN2CCN(C(C)C(=O)NC(C)c3ccc(F)cc3)CC2)cc1F", "note": "(stereo unspecified)", "Potency": "inconclusive: 35.5 µM [inhibitor, partial curve, poor fit]"}, {"smiles": "COc1cc(NC(=O)CSc2nnc(NC(C)C)s2)cc(OC)c1OC", "Potency": "inconclusive: 11.2 µM [inhibitor, partial curve, poor fit]"}, {"smiles": "NC(=S)NCCC[C@@H](N)C(=O)O", "Potency": "inconclusive: 2.51 µM [inhibitor, full curve, poor fit]"}, {"smiles": "C=CCNc1nc(Nc2ccc(OC)cc2OC)nc(OCC)n1", "Potency": "inconclusive: 15.8 µM [inhibitor, single point]"}, {"smiles": "Cc1nc(C)c(C(=O)N(c2ccc(C)c(C)c2)C(C(=O)NCc2ccco2)c2ccccc2)s1", "note": "(stereo unspecified)", "Potency": "inconclusive: 18.3 µM [inhibitor, single point]"}, {"smiles": "O=C1c2ccccc2C(=O)C12OC2c1ccc(Cl)cc1Cl", "note": "(stereo unspecified)", "Potency": "inconclusive: 5.17 µM [inhibitor, partial curve]"}, {"smiles": "CCNC(=O)C1CN(S(=O)(=O)c2ccccc2)CCN1S(=O)(=O)c1ccccc1", "note": "(stereo unspecified)", "activity change, negative = inhibition": "inactive: 5.82%"}, {"smiles": "O=C(Nc1ccc(Cl)cc1)c1cccc(N2C(=O)C3C4CCC(C4)C3C2=O)c1", "note": "(stereo unspecified)", "Potency": "inconclusive: 0.112 µM [activator, full curve, poor fit]"}, {"smiles": "CC(C)N(Cc1ccccc1)C(=S)Nc1ccccc1F", "Potency": "inconclusive: 10 µM [inhibitor, partial curve, poor fit]"}, {"smiles": "COC(=O)Cc1c(C)c2ccc(OCC(=O)N3CCOCC3)cc2oc1=O", "Potency": "inconclusive: 1.41 µM [activator, partial curve, poor fit]"}, {"smiles": "CCOC(=O)c1ccc(NC(=O)c2cccc(S(=O)(=O)N3c4ccccc4CC3C)c2)s1", "note": "(stereo unspecified)", "Potency": "inconclusive: 0.282 µM [activator, partial curve, poor fit]"}, {"smiles": "CC12CCC3c4ccc(OC(=O)N(CCCl)CCCl)cc4CCC3C1CCC2O", "note": "(stereo unspecified)", "Potency": "inconclusive: 35.5 µM [inhibitor, single point]"}, {"smiles": "CC1CN(C(=O)Nc2ccc(C(=O)NCCc3ccccc3)cc2)c2ccccc2S1", "note": "(stereo unspecified)", "Potency": "inconclusive: 12.6 µM [activator, partial curve, poor fit]"}, {"smiles": "O=C1C2=C(C(=O)c3ccccc31)[C@H]1O[C@](CCCCN3C(=O)c4ccccc4C3=O)(Cc3ccccc31)O2", "Potency": "inconclusive: 0.0168 µM [activator, full curve, poor fit]"}, {"smiles": "COc1ccc(C(=O)c2cn[nH]c2-c2cc(Cl)ccc2O)cc1", "Potency": "inconclusive: 32.6 µM [inhibitor, single point]"}, {"smiles": "O=C1NC(c2cccnc2)Nc2sc3c(c21)CCCC3", "note": "(stereo unspecified)", "Potency": "inconclusive: 14.6 µM [activator, single point]"}, {"smiles": "COc1cc2c3c(c1)C1(C(=O)N3C(C)(C)C=C2C)C(C#N)=C(N)Oc2cc(C)oc(=O)c21", "note": "(stereo unspecified)", "Potency": "inactive"}, {"smiles": "COc1cc(C(=O)N(CCc2ccccc2)C2=CC3CCC(C2)N3C)cc(OC)c1OC", "note": "(stereo unspecified)", "activity change, negative = inhibition": "inactive: -38.7%"}, {"smiles": "Cc1ccc2oc(-c3ccc(NC(=O)CC(C)C)cc3)nc2c1", "Potency": "inconclusive: 1.03 µM [activator, full curve, poor fit]"}, {"smiles": "CCCN(C(=O)c1cc2c(s1)-c1ccccc1SC2)c1ccccc1F", "activity change, negative = inhibition": "inactive: -5.01% [at 46.1 µM]"}, {"smiles": "CC(CN1CCCCC1)OC(=O)c1ccc2c(c1)OCCO2", "note": "(stereo unspecified)", "activity change, negative = inhibition": "inactive: 9.92% [at 46.1 µM]"}, {"smiles": "N#C/C(=C\\c1c(Oc2ccc(Cl)cc2)nc2ccccn2c1=O)C(=O)NC1CCS(=O)(=O)C1", "note": "(stereo unspecified)", "Potency": "inconclusive: 20 µM [inhibitor, single point]"}, {"smiles": "Cc1nnc(N2C(=O)c3cccc4cccc(c34)C2=O)s1", "Potency": "inconclusive: 20 µM [activator, single point]"}, {"smiles": "COc1ccc(C(O)(CCC(C)C)C(CN2CCOCC2)c2ccc(Cl)cc2)cc1", "note": "(stereo unspecified)", "Potency": "inconclusive: 7.08 µM [inhibitor, full curve, poor fit]"}, {"smiles": "COc1ccc(CC(=S)N2CCOCC2)cc1OC", "activity change, negative = inhibition": "inactive: -5.94%"}, {"smiles": "O=C(c1ccc(-c2ccccc2)cc1)N1CCN(c2ccccn2)CC1", "Potency": "inconclusive: 3.55 µM [inhibitor, single point]"}, {"smiles": "Cc1c(CCO)c(=O)[nH]n1C(=O)c1c(F)cccc1F", "Potency": "active: 2.06 µM"}, {"smiles": "O=C1NC(=O)C(=Cc2ccco2)C(=O)N1", "Potency": "inconclusive: 5.62 µM [inhibitor, single point]"}, {"smiles": "CNc1nc(N)c(C(=O)Nc2cc(C)on2)s1", "activity change, negative = inhibition": "inconclusive: 70.4% [activator]"}, {"smiles": "c1ccc(OCc2nc(-c3ccncc3)no2)cc1", "activity change, negative = inhibition": "inactive: 1.45%"}, {"smiles": "c1ccc(C(OCCN2CCN(c3ncccn3)CC2)c2ccccc2)cc1", "Potency": "inconclusive: 11.2 µM [inhibitor, partial curve, poor fit]"}, {"smiles": "Cc1cc(C(=O)CSc2nc(N)cc(N)n2)c(C)n1CCc1ccc(F)cc1", "Potency": "inconclusive: 35.5 µM [inhibitor, single point]"}, {"smiles": "C=CCOC(=O)C1=C(C)NC(SCC(=O)N(CC)CC)=C(C#N)[C@@H]1c1ccco1", "Potency": "inconclusive: 17.8 µM [inhibitor, single point]"}, {"smiles": "CC(C)(C)c1ccc(N2C(=O)Cc3c2nc(N)c(C#N)c3N)cc1", "Potency": "inconclusive: 7.3 µM [activator, partial curve, poor fit]"}, {"smiles": "CC(=O)Nc1c2c(nn1-c1ccc(C)cc1C)CSC2", "activity change, negative = inhibition": "inactive: -2.26%"}, {"smiles": "Cc1ccc(-c2nnc(SCC(N)=O)n2C)cc1", "activity change, negative = inhibition": "inactive: 12.8% [at 46.1 µM]"}, {"smiles": "CCCN(C(=O)CCl)C1=CCCCC1", "activity change, negative = inhibition": "inactive: 3.62% [at 46.1 µM]"}, {"smiles": "COc1cc(NC(=O)c2ccc(S(=O)(=O)N(C)c3ccccc3OC)cc2)cc(OC)c1", "Potency": "inconclusive: 28.2 µM [inhibitor, partial curve, poor fit]"}, {"smiles": "C/C(NC(=O)c1ccccc1)=C1/C(=O)CC2C1C2(C)C", "note": "(stereo unspecified)", "Potency": "inconclusive: 0.282 µM [activator, full curve, poor fit]"}, {"smiles": "Cc1nn2c(NCc3ccccn3)c3c(nc2c1-c1ccccc1)CCC3", "Potency": "inconclusive: 17.8 µM [inhibitor, partial curve, poor fit]"}, {"smiles": "NS(=O)(=O)c1ccc(NC(=S)NC(=O)/C=C/c2cccs2)cc1", "Potency": "inconclusive: 6.31 µM [activator, partial curve, poor fit]"}, {"smiles": "Cc1ccc([C@H]2C[C@@H](O)[C@H](n3cc(COC(=O)c4ccccc4)nn3)CN2Cc2cccs2)cc1", "Potency": "inconclusive: 0.396 µM [inhibitor, full curve, poor fit]"}, {"smiles": "O=C(Nc1ccc(Br)cn1)c1cccc(S(=O)(=O)N2CCCC2)c1", "Potency": "inconclusive: 12.6 µM [inhibitor, partial curve, poor fit]"}, {"smiles": "Cc1nc2oc3ccccc3c(=O)c2cc1C(=O)O", "activity change, negative = inhibition": "inactive: 9.07% [at 46.1 µM]"}, {"smiles": "COc1ccc(C2CC(=O)C=C(NNS(=O)(=O)c3ccc(C)cc3)C2)cc1", "note": "(stereo unspecified)", "Potency": "inconclusive: 10 µM [activator, partial curve, poor fit]"}, {"smiles": "COc1ccc(-c2nc3c(C#N)c[nH]n3c2NC2CCCCC2)c(OC)c1", "activity change, negative = inhibition": "inactive: 11.2% [at 46.1 µM]"}, {"smiles": "Cc1ccc(-c2nc(CSCC(=O)N3CCCC3)c(C)o2)cc1", "activity change, negative = inhibition": "inactive: -1.67%"}, {"smiles": "CC(C)(C)c1ccc(OCC(=O)NCC(c2cccs2)N2CCOCC2)cc1", "note": "(stereo unspecified)", "Potency": "inconclusive: 11.2 µM [inhibitor, partial curve, poor fit]"}, {"smiles": "COc1ccccc1NC(=O)Nc1ccc(N2CCOCC2)cc1", "Potency": "inconclusive: 10 µM [activator, partial curve, poor fit]"}, {"smiles": "CCCn1nc(C(=O)OCC(=O)c2ccc3c(c2)NC(=O)CO3)c2ccccc2c1=O", "Potency": "inconclusive: 0.146 µM [inhibitor, full curve, poor fit]"}, {"smiles": "O=C(C1COc2ccccc2O1)N1CCN(c2ccc([N+](=O)[O-])cc2)CC1", "note": "(stereo unspecified)", "Potency": "inconclusive: 7.08 µM [inhibitor, partial curve, poor fit]"}, {"smiles": "CC1CC(C)CN(S(=O)(=O)c2ccc(Oc3ccc([N+](=O)[O-])cc3)cc2)C1", "note": "(stereo unspecified)", "Potency": "inconclusive: 10 µM [inhibitor, partial curve]"}, {"smiles": "O=C(CN1C(=O)/C(=C/c2ccccc2F)Oc2ccccc21)N1CCN(c2ccccn2)CC1", "Potency": "inconclusive: 0.794 µM [activator, full curve]"}, {"smiles": "CCOC(=O)c1cc(COc2cc(Cl)cc(Cl)c2)on1", "activity change, negative = inhibition": "inactive: 0.41%"}, {"smiles": "Cc1nn(-c2ccccc2)c(Cl)c1C(=O)Nc1nnc(C2CCCCC2)s1", "Potency": "inconclusive: 29.1 µM [inhibitor, single point]"}]}]}
